The other results are listed elsewhere or left out. The main result of the screen is listed elsewhere. These columns were measured beside it and carry no call. The list favours compounds with an active or inconclusive main result. Words in brackets tell the shape of the fitted curve; partial curves, single points and poor fits give uncertain potencies.
Assay: qHTS Assay for Lipid Storage Modulators in Drosophila S3 Cells;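 for cell number change: cells counted by Cell Tracker Red CMTPX staining in the red channel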
Details: BODIPY lipid droplet fluorescence, 18-24 h; for cell number change: measured here: cell count max response, cells fed with added oleic acid
Method in brief: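 Drosophila S3 cells loaded with oleic acid (400 uM, as added) and compounds at several concentrations; lipid droplets imaged by 488-nm laser-scanning cytometry, 500–530 nm intensity and object ratio to cell channel. Percent activity normalized to 20 uM Triacsin C.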

[1] = measured here: cell number channel AC50, cells fed with added oleic acid
[2] = measured here: lipid fluorescence (Fed channel) AC50, cells fed with added oleic acid

SMILES	cell number change	AC50 [1]	AC50 [2]
CCOc1cc(NC(=O)C(C)C)c(OCC)cc1NC(=O)Nc1ccccc1	-39.9%	13 µM [falling, partial curve]	–
O=C(Cc1nn[nH]n1)Nc1cc(Cl)cc(Cl)c1	10.6%	–	–
CCC(CO)(CO)N(CC(=O)Nc1ccc(OC)cc1)CC(=O)Nc1ccc(OC)cc1	-36.6%	3.66 µM [falling, full curve]	2.06 µM [falling, partial curve]
O=C(CCC(=O)N/N=C/c1c[nH]c2ccccc12)NCc1ccccc1	5.59%	–	0.0651 µM [rising, full curve, poor fit]
O=C(Nc1ccc(F)cc1F)c1sccc1SCc1cccc(C(F)(F)F)c1	-9.62%	–	–
CC(=O)Nc1nnc(SCC(=O)N2C(C)CCCC2C)s1 (stereo not drawn)	-2.56%	–	–
N=c1c(C(=O)NCc2ccccc2)cc2c(=O)n3ccccc3nc2n1Cc1ccco1	128%	2.59 µM [rising, full curve]	20.6 µM [rising, partial curve]
CC(C)c1cc(C(=O)OCC(=O)NC(=O)NCc2ccco2)c(O)c(C(C)C)c1	-42.9%	5.8 µM [falling, full curve]	18.4 µM [falling, single point]
CC(C)(C)c1ccc(OCCC(=O)OCC(=O)N2c3ccccc3NC(=O)C2(C)C)cc1	129%	14.6 µM [rising, partial curve]	–
CCc1cccc(OCCOCCN2CCCC2)c1	-29.2%	0.82 µM [falling, full curve, poor fit]	0.116 µM [falling, full curve, poor fit]
CN1CCc2c(n(CC(O)CN(CCO)CCO)c3ccccc23)C1=O (stereo not drawn)	-59.2%	2.59 µM [falling, partial curve]	2.31 µM [falling, partial curve, poor fit]
Cc1nc(N2CCN(Cc3ccc4c(c3)OCO4)CC2)c2cc(-c3ccccc3)sc2n1	21.8%	–	0.082 µM [rising, full curve, poor fit]
CCOC(=O)c1c(NCC(C)C)c2ccccc2[nH]c1=O	-11%	1.84 µM [rising, partial curve]	–
CCOc1ccccc1N1CCN(S(=O)(=O)c2ccc(F)c(F)c2)CC1	-7.91%	–	0.82 µM [rising, full curve, poor fit]
C/C(CC(=O)NCc1ccccc1Cl)=N/NC(=O)c1ccccn1	-25%	–	–
CC(C)c1nc2cc(C(=O)N3CCNC(=O)C3c3ccc(F)cc3)ccc2o1 (stereo not drawn)	-3.3%	–	1.46 µM [rising, partial curve]
O=C(Nc1ccncc1)C1CCC(CNS(=O)(=O)c2cccc3nsnc23)CC1 (stereo not drawn)	-33.3%	0.116 µM [falling, full curve, poor fit]	29.1 µM [falling, single point]
COc1ccc(C(C(=O)NC(C)(C)C)N(C(=O)CCC(=O)Nc2ccccn2)C2CCCCC2)cc1 (stereo not drawn)	5.88%	–	0.13 µM [rising, partial curve, poor fit]
O=C(O)C1CCCN(S(=O)(=O)c2ccc(Cl)s2)C1 (stereo not drawn)	-13.5%	–	–
Cc1cc(C)nc(CCNC(=O)CC2C(=O)NCCN2Cc2ccc(F)cc2Cl)n1 (stereo not drawn)	4.46%	–	29.1 µM [rising, single point]

SMILES	cell number change	AC50 [1]	AC50 [2]
CN(Cc1ccccc1)C(=O)COC(=O)CCN1C(=O)C2CC=CCC2C1=O (stereo not drawn)	-3.5%	–	29.1 µM [rising, single point]
COc1ccc(Cc2nnc(N/N=C/c3ccccc3O)[nH]c2=O)cc1OC	-14.1%	–	3.66 µM [falling, partial curve, poor fit]
CCOC(=O)c1sc(NC(=O)CSc2nnc(C(C)C)n2C)nc1C	-31%	29.1 µM [falling, single point]	29.1 µM [falling, single point]
CC1(C)Cc2ccccc2-c2nnc(SCC(=O)N3CCc4ccccc43)n21	-53.5%	3.66 µM [falling, full curve]	–
CCN=C1SC(CC(=O)NCCc2ccc(OC)c(OC)c2)C(=O)N1CC (stereo not drawn)	-8.77%	–	–
Cc1cccc(N2CC(C(=O)NCC3COc4ccccc4O3)CC2=O)c1C (stereo not drawn)	16%	–	0.326 µM [rising, partial curve, poor fit]
O=C(NCc1ccncc1)C1CCN(S(=O)(=O)c2ccccc2)CC1	32%	0.517 µM [rising, full curve, poor fit]	–
Cc1ccc(C)c(N(CC(=O)NC2CCCC2)C(=O)c2csnn2)c1	0.952%	–	–
CC(C)(C)c1cc(NC(=O)COc2ccc(Br)cc2)n(-c2ccccc2)n1	–	2.31 µM [rising, partial curve]	–
Cc1ccc(C2CC(c3cccc(Br)c3)n3nc(N)nc3N2)cc1 (stereo not drawn)	–	4.61 µM [rising, single point]	–
O=C(Nc1ccc(F)cc1)c1ccccc1F	1.39%	0.731 µM [falling, full curve]	1.16 µM [falling, full curve]
COCc1nnc(NC(=O)c2ccc(S(=O)(=O)N(C)Cc3ccccc3)cc2)o1	6.52%	–	29.1 µM [falling, partial curve, poor fit]
Cc1cccc(C)c1OCC(=O)NCc1nnc(SCC(=O)NC2CCCCC2C)n1C (stereo not drawn)	12.1%	6.51 µM [rising, single point]	–
Oc1cccc(C(Nc2nccs2)c2ccc3cccnc3c2O)c1 (stereo not drawn)	81.8%	23.1 µM [rising, single point]	–
N#C/C(=C(/O)COc1ccccc1)c1nnc2n1CCCCC2	-37.6%	–	–
COc1ccc(-c2c(S(=O)(=O)c3ccccc3)cnn2-c2ccccc2)cc1	-11.9%	–	–
Cc1nn(-c2ccccc2)c(Cl)c1C1C(C#N)=C(N)Oc2n[nH]c(C)c21 (stereo not drawn)	0.541%	–	0.291 µM [rising, partial curve, poor fit]
O=C1Nc2ccccc2CCc2ccccc21	31.3%	14.6 µM [rising, single point]	29.1 µM [rising, single point]
Cc1nn(CC(N)=O)c(=O)c2ccccc12	-1.83%	–	0.00461 µM [falling, full curve, poor fit]
Fc1cccc(CNc2ncnc3ccc(-c4cccnc4)cc23)c1	31.2%	18.4 µM [rising, single point]	–

SMILES	cell number change	AC50 [1]	AC50 [2]
Cc1noc(C)c1C(=O)NCc1ccccc1	-75.7%	23.1 µM [falling, partial curve, poor fit]	0.731 µM [falling, full curve]
COCCn1c(SCC(=O)Nc2nnc(C)s2)nnc1-c1cc2ccccc2cc1O	0.878%	–	0.082 µM [falling, full curve, poor fit]
CC1=C(C(=O)Nc2ccc(C)cc2C)C(c2ccc(C)o2)NC(=S)N1 (stereo not drawn)	11.4%	–	0.13 µM [falling, full curve, poor fit]
CC1CCCN(CCCNC(=O)c2ccc3c(c2)N(Cc2ccc(F)cc2)C(=O)c2ccccc2S3=O)C1 (stereo not drawn)	35.1%	29.1 µM [rising, single point]	–
COc1ccc(-c2nc(CS(=O)CC(=O)NCCC3=CCCCC3)c(C)o2)cc1 (stereo not drawn)	4.66%	–	0.366 µM [falling, partial curve]
O=C(CN1CCN(Cc2cccc3ccccc23)CC1)NCCc1ccccc1	-14.5%	0.259 µM [falling, partial curve, poor fit]	–
Cc1ccccc1OCc1nc2ccccc2n1C	-27.7%	–	29.1 µM [falling, single point]
CN(Cc1ccc(F)cc1)C(=O)c1cccc(OC2CCN(C3CCCC3)CC2)c1	1.57%	–	2.91 µM [rising, full curve]
Nc1csnc1C(=O)O	-9.12%	–	0.231 µM [falling, full curve, poor fit]
O=S1(=O)CCOC[C@H](CC2CCCCC2)N1Cc1ccccc1	0.299%	–	1.16 µM [falling, single point]
COc1cccc(C(=O)NCC(=O)N/N=C/c2ccc3c(c2)OCO3)c1	58.3%	14.6 µM [rising, partial curve, poor fit]	29.1 µM [falling, single point]
Cn1nnc2cc(C(=O)Nc3ccccc3F)ccc21	-6.58%	–	–
CC(C(=O)N1CCc2ccccc21)N1CCN(c2ccccn2)CC1 (stereo not drawn)	–	–	6.51 µM [falling, single point]
Cc1cc(C)c2nc(NC(=O)c3ccc(OCC4CCCO4)cc3)sc2c1 (stereo not drawn)	-27.9%	–	29.1 µM [rising, single point]
Cc1cccc(N(C(=O)CNC(=O)c2ccco2)C(C(=O)NC2CCCC2)c2cccnc2)c1 (stereo not drawn)	4.53%	–	–
CCC(CC)c1nnc(NC(=O)c2ccco2)s1	16%	–	29.1 µM [falling, single point]
O=C1NC(=Nc2ccccc2)c2ccc([N+](=O)[O-])cc21	-45.3%	29.1 µM [falling, single point]	–
COc1ccc(C(=O)NC2CC(C)(C)Cc3c2cnn3-c2ccccc2C)c(OC)c1OC (stereo not drawn)	5.78%	–	6.51 µM [rising, single point]
Cc1cc(C)c(C)c(OCCNCc2ccccc2)c1	-31.5%	29.1 µM [falling, single point]	3.66 µM [falling, full curve]
CCOC(=O)c1c(NC(=O)CN(CC)CC)sc2c1CCC2	-34%	13 µM [falling, partial curve, poor fit]	–

In the list so far, 4 have a thiophene ring, fused or not.
SMILES	cell number change	AC50 [1]	AC50 [2]
O=C(Nc1ccc(F)cc1F)c1sccc1SCc1cccc(C(F)(F)F)c1	-9.62%	–	–
Cc1nc(N2CCN(Cc3ccc4c(c3)OCO4)CC2)c2cc(-c3ccccc3)sc2n1	21.8%	–	0.082 µM [rising, full curve, poor fit]
O=C(O)C1CCCN(S(=O)(=O)c2ccc(Cl)s2)C1 (stereo not drawn)	-13.5%	–	–
CCOC(=O)c1c(NC(=O)CN(CC)CC)sc2c1CCC2	-34%	13 µM [falling, partial curve, poor fit]	–

— PubChem BioAssay AID2685 (National Center for Advancing Translational Sciences (NCATS), 2010)
